Laboratory results published in US12194057B2, “NXTAR-derived oligonucleotides and uses thereof” (Washington University, priority 2020, dated 2025).
At least one structure is not confirmed: it was looked up by name or label, or the drawing left a doubt.

Tested on: VCaP and 22Rv1 cells
Test: Proliferation assay, viable cells by trypan blue exclusion
Assay type: cell-based, human
Conditions: abiraterone alone, 5 days
Protocol: NXTAR-N5 oligonucleotide was synthesized by IDT, and the oligonucleotide sequence is provided in TABLE 1 and FIG. 7C (* represents phosphorothioate bond modifications to avoid degradation by exonucleases). Equal numbers of VCaP and 22Rv1 cells were transfected with NXTAR-N5 or globin-derived oligonucleotide using X-tremeGENE360 (Sigma-Aldrich, Cat #08724121001), and the number of live cells was counted 96 h post-transfection using trypan blue exclusion method (Sigma, Cat #T8154). RNA was prepared from these cells, and qRT-PCR [SYBR PremixEx Taq II (Tli RNase H Plus)ROX, Clontech Takara, Cat #RR82LR] for AR and AR-V7 was performed as described earlier (see e.g., Mahajan et al. (2017) Cancer Cell).
The 22Rv1, VCaP, or LNCaP cells were retrovirally infected with control or NXTAR vectors and selected in puromycin medium containing 5% charcoal-stripped serum. Equal numbers of selected cells were seeded in 6-well plates followed by treatment with either (R)-9b, enzalutamide (Selleck Chemicals, Cat #S1250), or abiraterone (Selleck Chemicals, Cat #52246), and the number of viable cells was counted by trypan blue exclusion assay.

C[C@]12CC[C@H](O)CC1=CC[C@@H]1[C@@H]2CC[C@]2(C)C(c3cccnc3)=CC[C@@H]12 [abiraterone, reference compound]
proliferation (number of viable cells): sensitive to abiraterone
